Results: US20050191294A1, “Compositions and methods of use of targeting peptides for diagnosis and therapy” (Board of Regents, The University of Texas System, priority 2003, published 2005)
At least one peptide structure holds a part that was inferred or is arguable (an end, a ring closure or a residue). Where a SMILES comes first, the peptide text is derived from it. Bridges are numbered along the chain shown (N, C = ends). [ ]: non-standard residue; d: D form.

What was measured:
LNCaP cells = assay: Induction of apoptosis, WST-1 cell viability assay, LNCaP; type: cell-based, human; conditions: 10-100 μM, 24-72 hours
Method: Induction and Quantification of Apoptosis with […] (SEQ ID NO:1)-GG-D(KLAKLAK)2 (SEQ ID NO:11) Synthetic Peptide. Soluble […] (SEQ ID NO:1)-GG-D(KLAKLAK)2 (SEQ ID NO:11), […] […] The unrelated control peptide […] (SEQ ID NO:5)-GG-D(KLAKLAK)2 (SEQ ID NO:11) was synthesized by Genemed Synthesis, Inc. (South San Francisco, Calif.). LNCaP, MDA-PCa-2b cells (each at 3×10^4 per well), and EF43fgf-4 cells (7) at 2×10^4 per well were seeded in triplicates and incubated in 96-well plates (Becton Dickinson, Franklin Lakes, N.J.) for 24-72 hours at 37° C., with serially increasing concentrations (10-100 μM) of […] (SEQ ID NO:1))-GG-D(KLAKLAK)2 (SEQ ID NO:11) peptide, […] (SEQ ID NO:1)-peptide alone, D(KLAKLAK)2 (SEQ ID NO:11) peptide alone, or an equimolar mixture of the unconjugated peptides […] […] LNCaP cells were also exposed in parallel to increasing concentrations (20-100 μM) of […] (SEQ ID NO:1)-GG-D(KLAKLAK)2 (SEQ ID NO:11) and unrelated control peptides […] (SEQ ID NO:4)-GG-D(KLAKLAK)2 (SEQ ID NO:11) or […] (SEQ ID NO:5)-GG-D(KLAKLAK)2 (SEQ ID NO:11), under the same conditions. […] (SEQ ID NO:1)-GG-D(LAKLAK)2 (SEQ ID NO:11) peptide for 3 hours. Response was evaluated by a cell viability assay (WST-1; Roche, Mannheim, Germany).

[1] = tested on: wild-type mice obese due to old age; assay: Treatment of age-related obesity in regular diet-fed wild-type mice; type: in vivo, mouse
Method: Fat resorption and metabolic analysis. […] Tissue lipids were measured as described.

[2] = tested on: diet-induced obese C57BL/6 mice; assay: Fat resorption and metabolic analysis in diet-induced obese mice; conditions: for weight lost: daily s.c., four weeks into treatment

Q: How did the “programmed cell death / toxic effect (WST-1 cell viability)” value (LNCaP cells) turn out when `CC(C)C[C@@H](NC(=O)[C@@H](CCCCN)NC(=O)CNC(=O)CNC(=O)[C@@H]1CSSC[C@H](N)C(=O)N[C@@H](CCCCN)C(=O)NCC(=O)NCC(=O)N[C@@H](CCCNC(=N)N)C(=O)N[C@@H](C)C(=O)N[C@@H](CCCCN)C(=O)N[C@@H](CC(=O)O)C(=O)N1)C(=O)N[C@H](C)C(=O)N[C@H](CCCCN)C(=O)N[C@H](CC(C)C)C(=O)N[C@H](C)C(=O)N[C@H](CCCCN)C(=O)N[C@H](CCCCN)C(=O)N[C@H](CC(C)C)C(=O)N[C@H](C)C(=O)N[C@H](CCCCN)C(=O)N[C@H](CC(C)C)C(=O)N[C@H](C)C(=O)N[C@H](CCCCN)C(=O)O` (H-CKGGRAKDCGG[dK][dL][dA][dK][dL][dA][dK][dK][dL][dA][dK][dL][dA][dK]-OH; disulfide 1-9) was run?
A: no measurable toxic effects

Q: And the “rate of reduction in body mass” value ([1]; age-related obesity, regular diet)?
A: ~10 % per week

Q: And the “rate of weight re-gain upon discontinuation of treatment” value ([1]; mouse, in vivo)?
A: ~0.05 g/day

Q: What about the “dose dependence of the peptide effect” value ([1]; range of 50-100 nM/day) of the same molecule?
A: dose-dependent

Q: What about the “increase of serum free fatty acids versus control peptide-treated mice” value ([2]; at four weeks) of the same molecule?
A: 22%

Q: What about the “increase of serum glycerol versus control peptide-treated mice” value ([2]; at four weeks) of the same molecule?
A: 24%

Q: What about the weight lost [2] of the same molecule?
A: over 30%

Q: What about the weight lost ([2]; high-calorie diet continued) of the same molecule?
A: 15 g

Q: What about the “decrease of epididymal fat pad size compared with controls” value ([2]; end of treatment course) of the same molecule?
A: more than 3 fold

Q: What about the “epididymal fat pad size” value ([2]; end of treatment course, P<0.001) of the same molecule?
A: 0.6 ± 0.02 g
